# From PubChem BioAssay (EPA / NIEHS)
# Sequences of proteins named here, by UniProt entry; tags and fusion partners are left off. A change or cut given only in a name is not applied to a line headed by its entry.
# UniProt P04150: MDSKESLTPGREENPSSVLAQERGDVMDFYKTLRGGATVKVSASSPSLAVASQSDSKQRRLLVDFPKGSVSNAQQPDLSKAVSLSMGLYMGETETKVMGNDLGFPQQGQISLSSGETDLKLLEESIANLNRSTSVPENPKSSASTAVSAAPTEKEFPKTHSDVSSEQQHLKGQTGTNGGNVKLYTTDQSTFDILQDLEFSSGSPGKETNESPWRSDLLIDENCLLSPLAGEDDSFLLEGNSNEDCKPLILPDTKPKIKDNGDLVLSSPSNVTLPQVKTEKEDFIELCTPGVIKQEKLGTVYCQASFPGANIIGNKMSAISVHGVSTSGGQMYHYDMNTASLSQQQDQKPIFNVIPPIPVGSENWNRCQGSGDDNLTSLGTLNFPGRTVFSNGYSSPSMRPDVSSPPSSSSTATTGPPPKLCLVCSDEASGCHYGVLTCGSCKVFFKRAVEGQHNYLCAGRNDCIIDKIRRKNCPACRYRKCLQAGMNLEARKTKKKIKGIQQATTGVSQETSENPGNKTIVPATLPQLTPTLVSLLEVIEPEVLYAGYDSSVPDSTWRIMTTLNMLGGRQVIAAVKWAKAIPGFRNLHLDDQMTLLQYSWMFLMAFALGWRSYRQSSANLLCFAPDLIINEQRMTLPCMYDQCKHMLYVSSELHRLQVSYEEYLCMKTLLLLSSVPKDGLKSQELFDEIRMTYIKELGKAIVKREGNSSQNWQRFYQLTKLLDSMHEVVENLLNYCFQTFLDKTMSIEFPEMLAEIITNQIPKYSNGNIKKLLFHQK
# UniProt Q03181: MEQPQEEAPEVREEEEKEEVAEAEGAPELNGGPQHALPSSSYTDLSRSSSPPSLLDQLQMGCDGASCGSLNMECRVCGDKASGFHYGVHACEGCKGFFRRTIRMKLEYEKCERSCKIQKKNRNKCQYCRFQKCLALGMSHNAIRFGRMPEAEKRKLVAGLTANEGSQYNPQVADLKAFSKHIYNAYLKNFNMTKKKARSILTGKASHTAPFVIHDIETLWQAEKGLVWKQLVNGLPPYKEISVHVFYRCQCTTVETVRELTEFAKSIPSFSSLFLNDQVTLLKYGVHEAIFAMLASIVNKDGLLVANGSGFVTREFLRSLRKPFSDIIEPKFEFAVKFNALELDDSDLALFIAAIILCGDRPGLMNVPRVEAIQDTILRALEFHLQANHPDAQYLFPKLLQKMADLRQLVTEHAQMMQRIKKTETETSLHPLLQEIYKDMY
# UniProt O75469: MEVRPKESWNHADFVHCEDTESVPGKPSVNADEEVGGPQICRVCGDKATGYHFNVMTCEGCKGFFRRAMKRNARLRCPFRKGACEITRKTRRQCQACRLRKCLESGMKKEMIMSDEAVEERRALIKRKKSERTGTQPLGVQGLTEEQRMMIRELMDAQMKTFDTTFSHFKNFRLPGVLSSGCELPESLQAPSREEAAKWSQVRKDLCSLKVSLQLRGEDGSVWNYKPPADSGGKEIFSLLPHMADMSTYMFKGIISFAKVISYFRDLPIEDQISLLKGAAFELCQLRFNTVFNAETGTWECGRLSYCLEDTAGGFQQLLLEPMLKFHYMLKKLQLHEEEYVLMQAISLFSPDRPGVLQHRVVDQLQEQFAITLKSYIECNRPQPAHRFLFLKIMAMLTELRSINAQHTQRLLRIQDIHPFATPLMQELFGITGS
# UniProt P04637, whole entry, looked up: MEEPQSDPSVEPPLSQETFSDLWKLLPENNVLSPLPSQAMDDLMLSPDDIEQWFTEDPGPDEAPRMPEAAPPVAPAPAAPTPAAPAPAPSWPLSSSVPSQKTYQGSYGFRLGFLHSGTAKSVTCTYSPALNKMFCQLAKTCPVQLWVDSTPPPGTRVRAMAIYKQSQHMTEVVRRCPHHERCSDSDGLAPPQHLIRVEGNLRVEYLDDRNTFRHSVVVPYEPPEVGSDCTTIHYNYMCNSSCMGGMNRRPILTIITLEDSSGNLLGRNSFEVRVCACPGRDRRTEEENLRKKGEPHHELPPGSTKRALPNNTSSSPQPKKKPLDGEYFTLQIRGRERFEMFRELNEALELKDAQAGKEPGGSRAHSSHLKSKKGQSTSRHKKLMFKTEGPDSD
# UniProt P11473: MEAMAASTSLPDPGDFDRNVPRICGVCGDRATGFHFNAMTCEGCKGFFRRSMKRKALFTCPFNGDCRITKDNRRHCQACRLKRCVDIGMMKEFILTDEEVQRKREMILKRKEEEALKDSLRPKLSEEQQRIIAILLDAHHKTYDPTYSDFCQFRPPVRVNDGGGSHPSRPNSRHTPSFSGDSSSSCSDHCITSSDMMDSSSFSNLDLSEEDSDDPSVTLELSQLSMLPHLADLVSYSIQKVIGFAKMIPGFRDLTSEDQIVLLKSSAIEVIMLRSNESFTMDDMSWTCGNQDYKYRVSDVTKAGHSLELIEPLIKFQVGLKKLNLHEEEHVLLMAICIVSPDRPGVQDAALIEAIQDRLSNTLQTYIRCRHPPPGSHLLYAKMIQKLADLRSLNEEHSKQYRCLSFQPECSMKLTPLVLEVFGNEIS
# UniProt P19793: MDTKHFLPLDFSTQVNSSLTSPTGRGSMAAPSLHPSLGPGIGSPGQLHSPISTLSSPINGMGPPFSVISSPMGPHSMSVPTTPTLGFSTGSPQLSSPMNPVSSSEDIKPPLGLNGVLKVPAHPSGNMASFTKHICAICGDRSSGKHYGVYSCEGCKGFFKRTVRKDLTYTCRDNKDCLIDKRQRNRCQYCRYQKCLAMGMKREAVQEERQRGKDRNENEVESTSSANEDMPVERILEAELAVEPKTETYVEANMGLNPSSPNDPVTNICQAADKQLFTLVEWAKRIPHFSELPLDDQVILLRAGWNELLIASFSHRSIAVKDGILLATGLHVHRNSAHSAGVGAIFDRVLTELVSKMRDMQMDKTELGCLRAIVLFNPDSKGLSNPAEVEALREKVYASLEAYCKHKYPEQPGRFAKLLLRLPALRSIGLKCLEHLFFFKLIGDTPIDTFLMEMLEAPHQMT
# UniProt P37231: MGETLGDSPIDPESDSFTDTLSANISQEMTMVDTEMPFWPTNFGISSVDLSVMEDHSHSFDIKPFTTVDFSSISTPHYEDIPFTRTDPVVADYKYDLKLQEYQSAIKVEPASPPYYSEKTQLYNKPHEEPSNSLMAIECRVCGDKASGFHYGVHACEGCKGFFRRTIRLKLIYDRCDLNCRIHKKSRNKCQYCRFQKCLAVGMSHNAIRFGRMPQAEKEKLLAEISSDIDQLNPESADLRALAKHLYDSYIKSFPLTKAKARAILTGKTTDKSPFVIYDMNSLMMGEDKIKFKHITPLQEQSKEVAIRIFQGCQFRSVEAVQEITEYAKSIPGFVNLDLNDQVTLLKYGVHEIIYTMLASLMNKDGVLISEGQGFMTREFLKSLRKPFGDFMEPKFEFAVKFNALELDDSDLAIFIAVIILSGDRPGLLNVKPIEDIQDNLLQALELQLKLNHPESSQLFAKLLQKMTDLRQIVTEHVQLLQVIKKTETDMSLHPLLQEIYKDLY
# Several values for one entry are separate records, joined by “and”; a condition that tells them apart may be missing. Identical values can stand only once. This list was built around the results that the source calls inconclusive (neither active nor inactive); the mix of calls is not that of the screen. For part of these data: Potencies beside an inconclusive call are fits to weak or partial responses and may not hold up. Activity calls are given as the source filed them. The calls were made as follows: active = hit-call score of the fitted dose curve at least 0.9, where 1 is the maximum; inconclusive = response in the unintended direction; inactive = score below 0.9.
# How the values were obtained:
# [1] = target: Glucocorticoid receptor (Homo sapiens) (UniProt P04150); assay: ATG_GR_TRANS: Attagene TRANS-FACTORIAL HepG2 Assay for human Glucocorticoid Receptor (GR) (AID 2282978); details: HepG2 Attagene TRANS GR reporter, mRNA transcription;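 also: activators score as hits since higher reporter transcript over DMSO is fitted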
# In short: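 Exogenous NR-GAL4 fusion activity was assessed through induced GAL4-UAS reporter transcripts in transfected human HepG2 cells, quantified after 24 h by RT-PCR and fluorescent capillary electrophoresis with DMSO as baseline.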
# [2] = target: human Peroxisome Proliferator-activated Receptor delta (PPARd), PPARD (gene 5467) (UniProt Q03181); assay: ATG_PPARd_TRANS: Attagene TRANS-FACTORIAL HepG2 Assay for human Peroxisome Proliferator-activated Receptor delta (PPARd) (AID 2283002)
# In short: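 Measured quantity: GAL4-UAS reporter transcript induction in HepG2 after 24 h chemical dosing, with NR-Gal4 chimeras supplied by transient transfection. Detection by RT-PCR and capillary electrophoresis; upward fit against DMSO.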
# [3] = target: Nuclear receptor subfamily 1 group I member 2 (Homo sapiens) (UniProt O75469); assay: ATG_PXR_TRANS: Attagene TRANS-FACTORIAL HepG2 Assay for human Pregnane X Receptor (PXR) (AID 2283008)
# In short: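 Transient HepG2 transfectants carrying multiplexed reporter transcription units; PXR activity read through a Gal4 chimera. 24 h exposure. RT-PCR/CE fluorescence; upward curve fit referenced to DMSO.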
# [4] = TOX21_p53_BLA_p5_viability: Viability Assessment in the Tox21 HCT-116 p53 Agonism Beta-lactamase Assay, Phase 5 (AID 2283600)
# In short: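 ATP luminescence (CellTiter-Glo, 30 min, RT) served as the viability read-out, with loss of signal indicating cytotoxicity. Compounds in DMSO were pinned at a 217-fold dilution onto 4000 cells/well and incubated 16 h, 37C.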
# [5] = target: Cellular tumor antigen p53 (Homo sapiens) (UniProt P04637); assay: TOX21_p53_BLA_p4_ratio: Tox21 HCT-116 p53 Agonism Beta-lactamase Assay, Ratio, Phase 4 (AID 2283601)
# In short: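 HCT116 cells carrying an inducible beta-lactamase reporter were plated at 4000 cells/well, rested 5 h, then exposed to compounds in DMSO (217-fold dilution) for 16 h at 37C. CCF4-AM substrate was loaded 2 h at room temperature; 460/530 nm emission ratio scored gain-of-signal versus DMSO.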
# [6] = ACEA_ER_AUC_viability: ACEA Biosciences xCELLigence Real-Time Cell Analysis on Estrogen Receptor Agonism for Viability (AID 2283782);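 also: hit means loss of impedance signal meaning reduced cell growth or viability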
# In short: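 Continuous-exposure impedance cell analysis uses T-47D cells in charcoal-stripped serum, eight 1:4 dilutions topping at 100 uM final, biological duplicate. Area under the growth curve at 80 h is fitted against DMSO baseline.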
# [7] = ATG_M_06_TRANS: Attagene TRANS-FACTORIAL HepG2 Assay for M06 Transcription Factor (Internal Marker) (AID 2282983); details: HepG2 Attagene TRANS M06 internal marker reporter;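 as to AC50: potency for rise in reporter mRNA above DMSO baseline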;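 as to outcome: reporter transcript level by RT-PCR then capillary electrophoresis fluorescence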
# In short: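 Read-out: fluorescent reporter cDNA fragments resolved by capillary electrophoresis after RT-PCR and HpaI cut. Source cells were HepG2 carrying transfected multi-reporter GAL4 constructs, dosed 24 h. Increase over DMSO control analysed.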
# [8] = target: human Vitamin D Receptor (VDR), VDR (gene 7421) (UniProt P11473); assay: ATG_VDR_TRANS: Attagene TRANS-FACTORIAL HepG2 Assay for human Vitamin D Receptor (VDR) (AID 2283022)
# In short: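 RT-PCR/capillary electrophoresis read-out of reporter mRNA induction in transiently transfected HepG2; 24 h dosing; chimeric NR-Gal4 (TRANS format); gain-of-signal fit against DMSO baseline.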
# [9] = target: Retinoic acid receptor RXR-alpha (Homo sapiens) (UniProt P19793); assay: OT_NURR1_NURR1RXRa_1440: Odyssey Thera (OT) 24-hour HEK293T Protein Complementation Assay for Nurr1/retinoid X receptor (RXR) (AID 2283386)
# In short: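 Fluorescence PCA read-out; HEK293T; 24 h post-dose; bait/prey fused to reporter fragments; gain-of-signal fit vs DMSO negative control.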
# [10] = target: Cellular tumor antigen p53 (Homo sapiens) (UniProt P04637); assay: TOX21_p53_BLA_p3_ratio: Tox21 HCT-116 p53 Agonism Beta-lactamase Assay, Ratio, Phase 3 (AID 2283596)
# In short: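 Cells were seeded at 4000/well, rested 5 h at 37C, then dosed with DMSO compound solutions (217-fold dilution) for 16 h. CCF4-AM substrate was loaded for 2 h at room temperature, and the 460/530 nm emission ratio was fitted for gain of signal versus DMSO.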
# [11] = TOX21_p53_BLA_p4_viability: Viability Assessment in the Tox21 HCT-116 p53 Agonism Beta-lactamase Assay, Phase 4 (AID 2283597);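 also: hits lower the luminescence signal meaning cytotoxicity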
# In short: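 ATP content by CellTiter-Glo luminescence, 30 min RT, read after the beta-lactamase ratio step. Cells: HCT116, 4000/well, compound added after 5 h, exposure 16 h at 37C. Signal loss = reduced viability.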
# [12] = CCTE_Harrill_HTTr_CellCount_MCF7: CCTE's Cell Proliferation Assessment for the High-Throughput Transcriptomics (HTTr) Platform, Harrill Lab (AID 2284012);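 also: count of Hoechst-stained nuclei per well by high-content imaging in MCF-7 cells; cells exposed to compound for six hours; intended direction is loss of nuclei count meaning fewer cells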
# In short: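 Readout: Hoechst nuclear count by high-content imaging. MCF-7, 8-point dilution series, 6 h exposure. Bidirectional fit vs DMSO baseline.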
# [13] = ATG_XTT_Cytotoxicity: Cytotoxicity Assessment in the Attagene TRANS-FACTORIAL HepG2 Assay (AID 2283584);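 as to AC50: cells exposed to compound for 24 h before reading; active means loss of viability signal versus DMSO baseline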
# In short: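 XTT readout of cell number in transfected HepG2 cells, 24 h post-dosing; DMSO serves as negative control and baseline, with activity taken as loss of viability signal.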
# [14] = target: Cellular tumor antigen p53 (Homo sapiens) (UniProt P04637); assay: TOX21_p53_BLA_p2_ratio: Tox21 HCT-116 p53 Agonism Beta-lactamase Assay, Ratio, Phase 2 (AID 2283592)
# In short: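 Readout: blue/green (460/530 nm) FRET emission ratio after 2 h CCF4-AM loading at room temperature, excitation 405 nm. HCT116 p53 bla cells, 16 h compound exposure at 37C, 5% CO2; agonist direction fitted against DMSO baseline.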
# [15] = target: Cellular tumor antigen p53 (Homo sapiens) (UniProt P04637); assay: TOX21_p53_BLA_p5_ratio: Tox21 HCT-116 p53 Agonism Beta-lactamase Assay, Ratio, Phase 5 (AID 2283599)
# In short: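 HCT-116 cells carrying a p53-inducible beta-lactamase reporter were seeded at 4000 cells/well and dosed after 5 h with compound in DMSO (217-fold dilution). After 16 h at 37C, CCF4-AM substrate was added for 2 h, and the 460/530 nm emission ratio was scored as gain-of-signal versus DMSO.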
# [16] = target: Retinoic acid receptor RXR-alpha (Homo sapiens) (UniProt P19793); assay: OT_NURR1_NURR1RXRa_0480: Odyssey Thera (OT) 8-hour HEK293T Protein Complementation Assay for Nurr1/retinoid X receptor (RXR) (AID 2283385)
# In short: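 Read-out: fluorescence from protein-fragment complementation between Nurr1 and RXRα in human HEK293T cells, 8 h after dosing. DMSO served as negative control; increased signal counted as activity.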
# [17] = target: Peroxisome proliferator-activated receptor gamma (Homo sapiens) (UniProt P37231); assay: ATG_PPARg_TRANS: Attagene TRANS-FACTORIAL HepG2 Assay for human Peroxisome Proliferator-activated Receptor-gamma (PPARg) (AID 2283007)
# In short: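 Endpoint reflects upward reporter mRNA change versus DMSO controls. Setup: transiently transfected HepG2, GAL4-UAS reporters driven by chimeric NR-Gal4, 24 h incubation, RT-PCR with capillary electrophoresis read-out.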
smiles,measurement,setting,value
Cc1ccc(OC(=O)c2ccccc2O)cc1,AC50,[1],inconclusive: 23.3 µM
same,AC50,[2],inconclusive: 100 µM
same,outcome,[3],inactive
same,outcome,[4],inactive
same,AC50,[5],inconclusive: 46.1 µM
same,AC50,[6],active: 50 µM
CCCCCC(CO)CCC (centres undefined),AC50,[6],inconclusive: 0.0208 µM
Oc1ccc2c(c1)OC[C@@H](N1CCC(O)(c3ccc(F)cc3)CC1)[C@H]2O,AC50,[1],inconclusive: 50 µM
same,outcome,[7],inactive
same,outcome,[2],inactive
same,AC50,[3],active: 13.6 µM
same,AC50,[8],inconclusive: 85.2 µM
same,AC50,[9],inconclusive: 25 µM and inconclusive: 13.1 µM
same,outcome,[10],inactive
same,outcome,[11],inactive
same,AC50,[4],inconclusive: 23 µM
same,AC50,[5],inconclusive: 23 µM
same,outcome,[12],inactive
CC/C=C\CC/C=C/C(OCC)OCC,AC50,[1],inconclusive: 100 µM
same,outcome,[2],inactive
same,AC50,[13],inconclusive: 100 µM
same,AC50,[14],inconclusive: 46.1 µM
same,AC50,[10],inconclusive: 77.3 µM
same,outcome,[11],inactive
same,outcome,[15],inactive
same,AC50,[4],inconclusive: 46.1 µM
same,AC50,[5],inconclusive: 46.1 µM
CC1(C)CCC[C@]2(C)[C@H]3CCO[C@]3(C)CC[C@@H]12,AC50,[1],inconclusive: 100 µM
same,outcome,[8],inactive
same,AC50,[13],inconclusive: 100 µM
same,AC50,[6],active: 76.2 µM
CCCCCCCC/C=C\CCCCCCCC(=O)OCC,outcome,[1],inactive
same,AC50,[7],inconclusive: 100 µM
same,outcome,[16],inactive
same,AC50,[9],inconclusive: 823 nM
same,outcome,[6],inactive
C=CCOc1c(Br)cc(Br)cc1Br,outcome,[17],inactive
same,AC50,[13],inconclusive: 100 µM
same,AC50,[14],inconclusive: 46.1 µM
same,AC50,[11],inconclusive: 46.1 µM
C[C@H]1C[C@@H](O)CC(C)(C)C1,AC50,[2],inconclusive: 100 µM
same,AC50,[13],inconclusive: 100 µM
same,AC50,[11],inconclusive: 46.1 µM
same,AC50,[4],inconclusive: 46.1 µM
same,AC50,[6],active: 50 µM
CN1C(=O)N(C)C(O)C1O (centres undefined),AC50,[1],inconclusive: 100 µM
same,AC50,[7],inconclusive: 100 µM
same,AC50,[3],inconclusive: 100 µM
same,outcome,[11],inactive
same,outcome,[4],inactive
CCC(C)(CCC(C)C)C(=O)O (centres undefined),outcome,[2],inactive
same,AC50,[16],inconclusive: 50 µM
same,AC50,[9],inconclusive: 50000 nM
same,outcome,[13],inactive
